Legend:
[1] = test system: JEV RVP; test: microbe, parasite or virus in culture; conditions: Japanese encephalitis virus, Vero, 24 h
[2] = Cytotoxicity (CC50) of compounds from the reconfirmation screen; assay type: cell-based; conditions: African green monkey, Vero cells; 50% cytotoxic concentration
[3] = test system: JEV RVP; test: in vitro; conditions: African green monkey, SI (selective index, CC50/IC50), Vero cells

Clc1ccc(CSC(Cn2ccnc2)c2ccc(Cl)cc2Cl)cc1 (stereo not drawn) [Sulconazole nitrate]
IC50 [1]: 7.6 µM | CC50 [2]: 18.7 µM | selectivity ratio [3]: 2.5

— publication PMC5640845, “Screening of FDA-Approved Drugs for Inhibitors of Japanese Encephalitis Virus Infection” (Journal of Virology, 2017)
